{"source": "PubChem BioAssay AID602196 (INSERM, 2012)", "purpose": "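Knock-downs that protect lung cancer cells from cisplatin or sensitise them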", "cells": "human A549 lung cancer cells", "reagents": "siRNA pair against human genes", "duration": "48 h transfection before cisplatin; time from cisplatin to read-out not stated", "conditions": "cisplatin at a dose killing half of control-siRNA cells; exact dose and duration not given", "read-out": "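Cisplatin cell death as a shift from the 50% death seen with control siRNA; siRNAs toxic or growth-blocking alone scored 0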", "scale": "two-siRNA summed score (-2 to +2): higher = both siRNAs protect from cisplatin killing; -2 means both sensitise; mean protection from cisplatin (shift in death): higher = protection from cisplatin killing", "hit rule": "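Each siRNA scores 0 if harmful alone by LDH or WST-1, otherwise +1 if it reduces and -1 if it increases cisplatin killing; a gene is active when both siRNAs agree (sum +2 or -2)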", "meaning of the calls": "active = both siRNAs shift cisplatin killing the same way; inactive = no consistent shift, or siRNA harmful alone", "note": "In all, the deposit lists about 23,000 reagents; shown is a random part of them. In the full data, 455 (2%) are marked active. 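Active includes both protection and sensitisation; some change values fall well beyond the stated -50 to +50 range.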 Reagents against one gene are numbered here. Not all columns of the deposit are shown. Not stated in the record: the amount of reagent."}
{"target gene": "EGFL7 (EGF like domain multiple 7)", "reagent no.": 1, "two-siRNA summed score (-2 to +2)": 0, "mean protection from cisplatin (shift in death) (%)": 22.2, "Call": "inactive"}
{"target gene": "KDM5C (lysine demethylase 5C)", "reagent no.": 1, "two-siRNA summed score (-2 to +2)": 0, "mean protection from cisplatin (shift in death) (%)": -21.4, "Call": "inactive"}
{"target gene": "DCDC2 (doublecortin domain containing 2)", "reagent no.": 1, "two-siRNA summed score (-2 to +2)": 0, "mean protection from cisplatin (shift in death) (%)": 0.5, "Call": "inactive"}
{"target gene": "RNASE3 (ribonuclease A family member 3)", "reagent no.": 1, "two-siRNA summed score (-2 to +2)": 0, "mean protection from cisplatin (shift in death) (%)": 5, "Call": "inactive"}
{"target gene": "INCA1 (inhibitor of CDK, cyclin A1 interacting protein 1)", "reagent no.": 1, "two-siRNA summed score (-2 to +2)": 0, "mean protection from cisplatin (shift in death) (%)": 3.6, "Call": "inactive"}
{"target gene": "KATNAL2 (katanin catalytic subunit A1 like 2)", "reagent no.": 1, "two-siRNA summed score (-2 to +2)": 0, "mean protection from cisplatin (shift in death) (%)": 9.1, "Call": "inactive"}
{"target gene": "LOC440599", "reagent no.": 1, "two-siRNA summed score (-2 to +2)": 0, "mean protection from cisplatin (shift in death) (%)": 10.5, "Call": "inactive"}
{"target gene": "LOC440848", "reagent no.": 1, "two-siRNA summed score (-2 to +2)": 0, "mean protection from cisplatin (shift in death) (%)": 7.8, "Call": "inactive"}
{"target gene": "TMPRSS3 (transmembrane serine protease 3)", "reagent no.": 1, "two-siRNA summed score (-2 to +2)": 2, "mean protection from cisplatin (shift in death) (%)": 22.2, "Call": "active"}
{"target gene": "LOC392223", "reagent no.": 1, "two-siRNA summed score (-2 to +2)": -1, "mean protection from cisplatin (shift in death) (%)": 5.2, "Call": "inactive"}
{"target gene": "FAM43B (family with sequence similarity 43 member B)", "reagent no.": 1, "two-siRNA summed score (-2 to +2)": 0, "mean protection from cisplatin (shift in death) (%)": 7.6, "Call": "inactive"}
{"target gene": "GIT2 (GIT ArfGAP 2)", "reagent no.": 1, "two-siRNA summed score (-2 to +2)": 0, "mean protection from cisplatin (shift in death) (%)": 0.7, "Call": "inactive"}
{"target gene": "MECR (mitochondrial trans-2-enoyl-CoA reductase)", "reagent no.": 1, "two-siRNA summed score (-2 to +2)": 0, "mean protection from cisplatin (shift in death) (%)": -7, "Call": "inactive"}
{"target gene": "POPDC1 (popeye domain cAMP effector 1)", "reagent no.": 1, "two-siRNA summed score (-2 to +2)": 0, "mean protection from cisplatin (shift in death) (%)": 1.8, "Call": "inactive"}
{"target gene": "PPP1R12B (protein phosphatase 1 regulatory subunit 12B)", "reagent no.": 1, "two-siRNA summed score (-2 to +2)": 0, "mean protection from cisplatin (shift in death) (%)": 2.2, "Call": "inactive"}
{"target gene": "KIF5C (kinesin family member 5C)", "reagent no.": 1, "two-siRNA summed score (-2 to +2)": 0, "mean protection from cisplatin (shift in death) (%)": 15.1, "Call": "inactive"}
{"target gene": "SALL1 (spalt like transcription factor 1)", "reagent no.": 1, "two-siRNA summed score (-2 to +2)": 0, "mean protection from cisplatin (shift in death) (%)": -0.6, "Call": "inactive"}
{"target gene": "STATH (statherin)", "reagent no.": 1, "two-siRNA summed score (-2 to +2)": 0, "mean protection from cisplatin (shift in death) (%)": 10.1, "Call": "inactive"}
{"target gene": "BCL3 (BCL3 transcription coactivator)", "reagent no.": 1, "two-siRNA summed score (-2 to +2)": 1, "mean protection from cisplatin (shift in death) (%)": 9.1, "Call": "inactive"}
{"target gene": "NUP85 (nucleoporin 85)", "reagent no.": 1, "two-siRNA summed score (-2 to +2)": 0, "mean protection from cisplatin (shift in death) (%)": 7.2, "Call": "inactive"}
{"target gene": "TENT2 (terminal nucleotidyltransferase 2)", "reagent no.": 1, "two-siRNA summed score (-2 to +2)": 0, "mean protection from cisplatin (shift in death) (%)": 8.9, "Call": "inactive"}
{"target gene": "LOC392179", "reagent no.": 1, "two-siRNA summed score (-2 to +2)": 0, "mean protection from cisplatin (shift in death) (%)": 15.5, "Call": "inactive"}

Continued; the last 5 above are carried over.
{"target gene": "STATH (statherin)", "reagent no.": 1, "two-siRNA summed score (-2 to +2)": 0, "mean protection from cisplatin (shift in death) (%)": 10.1, "Call": "inactive"}
{"target gene": "BCL3 (BCL3 transcription coactivator)", "reagent no.": 1, "two-siRNA summed score (-2 to +2)": 1, "mean protection from cisplatin (shift in death) (%)": 9.1, "Call": "inactive"}
{"target gene": "NUP85 (nucleoporin 85)", "reagent no.": 1, "two-siRNA summed score (-2 to +2)": 0, "mean protection from cisplatin (shift in death) (%)": 7.2, "Call": "inactive"}
{"target gene": "TENT2 (terminal nucleotidyltransferase 2)", "reagent no.": 1, "two-siRNA summed score (-2 to +2)": 0, "mean protection from cisplatin (shift in death) (%)": 8.9, "Call": "inactive"}
{"target gene": "LOC392179", "reagent no.": 1, "two-siRNA summed score (-2 to +2)": 0, "mean protection from cisplatin (shift in death) (%)": 15.5, "Call": "inactive"}
{"target gene": "ABI1 (abl interactor 1)", "reagent no.": 1, "two-siRNA summed score (-2 to +2)": 0, "mean protection from cisplatin (shift in death) (%)": 15.6, "Call": "inactive"}
{"target gene": "ABI1 (abl interactor 1)", "reagent no.": 2, "two-siRNA summed score (-2 to +2)": 0, "mean protection from cisplatin (shift in death) (%)": 22.7, "Call": "inactive"}
{"target gene": "EWSR1 (EWS RNA binding protein 1)", "reagent no.": 1, "two-siRNA summed score (-2 to +2)": -1, "mean protection from cisplatin (shift in death) (%)": -3.3, "Call": "inactive"}
{"target gene": "TOM1 (target of myb1 membrane trafficking protein)", "reagent no.": 1, "two-siRNA summed score (-2 to +2)": 0, "mean protection from cisplatin (shift in death) (%)": -10.4, "Call": "inactive"}
{"target gene": "MB21D2 (Mab-21 domain containing 2)", "reagent no.": 1, "two-siRNA summed score (-2 to +2)": 0, "mean protection from cisplatin (shift in death) (%)": -8.5, "Call": "inactive"}
{"target gene": "BHLHE22-AS1 (BHLHE22 antisense RNA 1)", "reagent no.": 1, "two-siRNA summed score (-2 to +2)": 0, "mean protection from cisplatin (shift in death) (%)": 3.9, "Call": "inactive"}
{"target gene": "ZNF43 (zinc finger protein 43)", "reagent no.": 1, "two-siRNA summed score (-2 to +2)": 0, "mean protection from cisplatin (shift in death) (%)": 7.9, "Call": "inactive"}
{"target gene": "NDUFA10 (NADH:ubiquinone oxidoreductase subunit A10)", "reagent no.": 1, "two-siRNA summed score (-2 to +2)": 0, "mean protection from cisplatin (shift in death) (%)": 7.1, "Call": "inactive"}
{"target gene": "ZNF211 (zinc finger protein 211)", "reagent no.": 1, "two-siRNA summed score (-2 to +2)": 1, "mean protection from cisplatin (shift in death) (%)": 3, "Call": "inactive"}
{"target gene": "OR8G2P (olfactory receptor family 8 subfamily G member 2 pseudogene)", "reagent no.": 1, "two-siRNA summed score (-2 to +2)": 0, "mean protection from cisplatin (shift in death) (%)": 7.5, "Call": "inactive"}
{"target gene": "AGBL4 (AGBL carboxypeptidase 4)", "reagent no.": 1, "two-siRNA summed score (-2 to +2)": 1, "mean protection from cisplatin (shift in death) (%)": 5.4, "Call": "inactive"}
{"target gene": "ZNF431 (zinc finger protein 431)", "reagent no.": 1, "two-siRNA summed score (-2 to +2)": 0, "mean protection from cisplatin (shift in death) (%)": 10.1, "Call": "inactive"}
{"target gene": "LOC220717", "reagent no.": 1, "two-siRNA summed score (-2 to +2)": 0, "mean protection from cisplatin (shift in death) (%)": 23.5, "Call": "inactive"}
{"target gene": "OR4K1 (olfactory receptor family 4 subfamily K member 1)", "reagent no.": 1, "two-siRNA summed score (-2 to +2)": 0, "mean protection from cisplatin (shift in death) (%)": -2.5, "Call": "inactive"}
{"target gene": "GHR (growth hormone receptor)", "reagent no.": 1, "two-siRNA summed score (-2 to +2)": 0, "mean protection from cisplatin (shift in death) (%)": 5.1, "Call": "inactive"}
{"target gene": "HMGB1P1 (high mobility group box 1 pseudogene 1)", "reagent no.": 1, "two-siRNA summed score (-2 to +2)": 1, "mean protection from cisplatin (shift in death) (%)": 12.2, "Call": "inactive"}
{"target gene": "ZNF585B (zinc finger protein 585B)", "reagent no.": 1, "two-siRNA summed score (-2 to +2)": 1, "mean protection from cisplatin (shift in death) (%)": 8.8, "Call": "inactive"}
{"target gene": "ADCY9 (adenylate cyclase 9)", "reagent no.": 1, "two-siRNA summed score (-2 to +2)": -1, "mean protection from cisplatin (shift in death) (%)": -3.1, "Call": "inactive"}
